Test results from patent US20230065562A1, “DUAL CONTROLS FOR THERAPEUTIC CELL ACTIVATION OR ELIMINATION” (Bellicum Pharmaceuticals, Inc., priority 2015, published 2023).
At least one compound was matched to its structure with a doubt left.

System: iCasp9-transduced, CD19-selected allodepleted T cells
Experiment: Induction of apoptosis with AP20187 in gene-modified allodepleted T cells (annexin V/7-AAD)
Type: cell-based, human
Settings: CD25 positive cells after reactivation
Protocol: Suicide gene functionality was assessed by adding a small molecule synthetic homodimerizer, AP20187 (Ariad Pharmaceuticals; Cambridge, Mass.), at 10 nM final concentration the day following CD19 immunomagnetic selection. Cells were stained with annexin V and 7-amino-actinomycin (7-AAD)(BD Pharmingen) at 24 hours and analyzed by flow cytometry. Cells negative for both annexin V and 7-AAD were considered viable, cells that were annexin V positive were apoptotic, and cells that were both annexin V and 7-AAD positive were necrotic. […]
Cells were maintained in T cell medium containing 50 U/ml IL-2 until 22 days after transduction. […] CD19 expression and suicide gene function in both reactivated and non-reactivated cells were measured on day 24 or 25 post transduction. […]
To assess the stability of transgene expression and function, cells were maintained in T cell culture medium and low dose IL-2 (50 U/ml) until 24 days after transduction. […] CD19 expression was analyzed by flow cytometry 48 to 72 hours later, and suicide gene function was assessed by treatment with 10 nM AP20187. […] By day 24, surface CD19 expression fell from about 98%±1% to about 88%±4% (p<0.05) with a parallel decrease in mean fluorescence intensity (MFI) from 793±128 to 478±107 (p<0.05) (see FIG. 13B). […]

## CC[C@H](C(=O)N1CCCC[C@H]1C(=O)O[C@H](CCc1ccc(OC)c(OC)c1)c1cccc(OCC(=O)NCC(CNC(=O)COc2cccc([C@@H](CCc3ccc(OC)c(OC)c3)OC(=O)[C@@H]3CCCCN3C(=O)[C@@H](CC)c3cc(OC)c(OC)c(OC)c3)c2)CN(C)C)c1)c1cc(OC)c(OC)c(OC)c1 [AP20187]
  killing efficiency: about 93%.2±1.2
